PMC11633369
These are yes or no findings as the source states them, for the method shown. Binding calls can cover weak binding; strength is not graded here.

Sequences of proteins named here, by UniProt entry; tags and fusion partners are left off. A change or cut given only in a name is not applied to a line headed by its entry.
UniProt A0A3Q7E8S5: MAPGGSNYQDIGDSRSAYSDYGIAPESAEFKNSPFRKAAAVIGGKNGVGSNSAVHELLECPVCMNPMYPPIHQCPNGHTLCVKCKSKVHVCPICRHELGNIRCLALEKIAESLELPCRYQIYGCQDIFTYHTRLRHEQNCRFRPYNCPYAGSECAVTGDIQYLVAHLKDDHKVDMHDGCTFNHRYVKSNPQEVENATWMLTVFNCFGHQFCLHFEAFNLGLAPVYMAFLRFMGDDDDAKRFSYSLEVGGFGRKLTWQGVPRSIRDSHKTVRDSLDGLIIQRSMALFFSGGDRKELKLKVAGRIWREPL
UniProt A0A3Q7F640: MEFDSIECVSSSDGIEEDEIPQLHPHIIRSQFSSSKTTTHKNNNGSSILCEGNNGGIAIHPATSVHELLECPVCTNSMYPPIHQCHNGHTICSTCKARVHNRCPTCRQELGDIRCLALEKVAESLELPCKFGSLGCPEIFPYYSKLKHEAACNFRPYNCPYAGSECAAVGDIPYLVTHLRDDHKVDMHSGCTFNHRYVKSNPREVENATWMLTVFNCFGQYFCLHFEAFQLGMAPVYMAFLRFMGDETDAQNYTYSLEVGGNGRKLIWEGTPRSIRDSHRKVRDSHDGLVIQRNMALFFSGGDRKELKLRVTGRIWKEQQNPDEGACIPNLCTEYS
UniProt A0A3Q7HES6: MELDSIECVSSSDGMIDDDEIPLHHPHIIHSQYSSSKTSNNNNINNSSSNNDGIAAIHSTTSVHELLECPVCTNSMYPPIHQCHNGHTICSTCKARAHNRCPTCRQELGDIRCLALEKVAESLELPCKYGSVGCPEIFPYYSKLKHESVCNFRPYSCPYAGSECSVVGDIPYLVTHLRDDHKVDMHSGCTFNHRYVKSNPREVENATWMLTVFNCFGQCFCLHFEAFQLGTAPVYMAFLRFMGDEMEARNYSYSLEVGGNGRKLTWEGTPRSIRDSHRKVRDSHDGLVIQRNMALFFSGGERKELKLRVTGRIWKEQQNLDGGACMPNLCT
UniProt A0A3Q7FN26: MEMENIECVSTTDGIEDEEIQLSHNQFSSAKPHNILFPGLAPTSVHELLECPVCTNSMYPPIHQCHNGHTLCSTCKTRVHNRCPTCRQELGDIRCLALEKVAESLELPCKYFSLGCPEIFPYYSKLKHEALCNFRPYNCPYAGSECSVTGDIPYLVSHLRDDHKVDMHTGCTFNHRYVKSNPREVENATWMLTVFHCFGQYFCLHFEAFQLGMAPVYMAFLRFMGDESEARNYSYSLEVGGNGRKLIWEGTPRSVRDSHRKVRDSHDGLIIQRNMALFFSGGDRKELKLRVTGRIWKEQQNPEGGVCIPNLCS
UniProt A0A3Q7IBT0: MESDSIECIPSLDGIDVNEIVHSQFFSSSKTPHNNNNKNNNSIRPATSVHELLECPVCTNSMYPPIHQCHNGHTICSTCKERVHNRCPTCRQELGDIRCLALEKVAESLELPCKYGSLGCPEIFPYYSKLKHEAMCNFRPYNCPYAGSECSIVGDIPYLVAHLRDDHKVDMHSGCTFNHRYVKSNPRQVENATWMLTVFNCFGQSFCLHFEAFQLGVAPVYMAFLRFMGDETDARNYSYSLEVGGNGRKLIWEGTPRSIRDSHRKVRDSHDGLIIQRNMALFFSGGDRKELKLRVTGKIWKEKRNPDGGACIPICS

molecular target: MBP‐BSD1‐HA (tomato (Solanum lycopersicum)); assay: pull-down; 20 µg MBP-BSD1-HA coupled to anti-HA Affinity Matrix, blocked with BSA; 20 µg precleared MBP-SINA1-6 or MBP-RHA1B added, 1 h at 4 °C; 20 mM HEPES-KOH pH 7.9, 15% glycerol, 0.2 mM EDTA, 0.2% NP-40, 1 mM DTT, 0.1 M NaCl; Western blot with anti-MBP; both purified

Substance | binding
MBP‐SINA1 (from UniProt A0A3Q7E8S5) (enzyme) | binds
MBP‐SINA2 (from UniProt A0A3Q7F640) (enzyme) | binds
MBP‐SINA3 (from UniProt A0A3Q7HES6) (enzyme) | binds
MBP‐SINA5 (from UniProt A0A3Q7FN26) (enzyme) | binds
MBP‐SINA6 (from UniProt A0A3Q7IBT0) (enzyme) | binds
